Among the data in publication PMC12508586 are binding values, retold here.

Protein sequences, listed by entry. Tags and fused reporters are not part of them.
UniProt Q15370: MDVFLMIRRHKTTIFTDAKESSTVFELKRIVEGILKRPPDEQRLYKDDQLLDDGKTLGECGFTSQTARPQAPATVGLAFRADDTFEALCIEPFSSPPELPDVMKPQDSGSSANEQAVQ
UniProt P46934: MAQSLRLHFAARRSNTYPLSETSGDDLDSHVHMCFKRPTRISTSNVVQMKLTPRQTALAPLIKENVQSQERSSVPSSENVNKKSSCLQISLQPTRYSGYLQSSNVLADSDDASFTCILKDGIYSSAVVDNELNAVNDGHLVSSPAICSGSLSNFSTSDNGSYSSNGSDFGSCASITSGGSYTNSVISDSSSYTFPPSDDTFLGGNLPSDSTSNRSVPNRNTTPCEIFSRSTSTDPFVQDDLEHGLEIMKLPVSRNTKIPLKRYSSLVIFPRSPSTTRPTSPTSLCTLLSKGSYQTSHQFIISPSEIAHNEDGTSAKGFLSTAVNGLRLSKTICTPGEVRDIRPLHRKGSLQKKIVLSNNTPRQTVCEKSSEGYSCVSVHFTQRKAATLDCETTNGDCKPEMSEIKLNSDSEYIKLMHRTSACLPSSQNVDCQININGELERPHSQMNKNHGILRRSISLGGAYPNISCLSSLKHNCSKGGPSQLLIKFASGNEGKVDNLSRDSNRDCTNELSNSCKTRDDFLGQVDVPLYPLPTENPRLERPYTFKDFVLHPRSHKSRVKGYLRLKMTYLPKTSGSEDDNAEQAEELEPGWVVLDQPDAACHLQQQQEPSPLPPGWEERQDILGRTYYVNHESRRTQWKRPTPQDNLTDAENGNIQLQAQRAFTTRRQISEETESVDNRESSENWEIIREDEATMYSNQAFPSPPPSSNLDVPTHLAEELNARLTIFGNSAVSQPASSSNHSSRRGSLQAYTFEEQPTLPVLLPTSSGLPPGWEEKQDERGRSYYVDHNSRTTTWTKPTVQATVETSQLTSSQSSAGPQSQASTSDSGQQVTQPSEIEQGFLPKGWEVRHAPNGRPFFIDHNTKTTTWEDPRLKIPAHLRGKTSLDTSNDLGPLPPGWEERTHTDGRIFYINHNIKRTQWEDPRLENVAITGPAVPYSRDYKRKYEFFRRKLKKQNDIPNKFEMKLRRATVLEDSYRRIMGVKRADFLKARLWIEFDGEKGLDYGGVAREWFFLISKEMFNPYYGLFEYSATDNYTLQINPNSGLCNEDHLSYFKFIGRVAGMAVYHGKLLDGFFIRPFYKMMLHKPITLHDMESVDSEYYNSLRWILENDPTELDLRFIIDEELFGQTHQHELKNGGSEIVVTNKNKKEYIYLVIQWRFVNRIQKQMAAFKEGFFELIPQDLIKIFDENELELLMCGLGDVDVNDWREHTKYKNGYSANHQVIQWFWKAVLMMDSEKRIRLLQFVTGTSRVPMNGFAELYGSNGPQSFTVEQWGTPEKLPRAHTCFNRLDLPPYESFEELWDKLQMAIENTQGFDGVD

The target in experiment [1] is T1, Slit guidance ligand 2 (Slit2) (human (endogenous in MDA-MB-231 and BT-549)) (UniProt O94813).
T1 sequence: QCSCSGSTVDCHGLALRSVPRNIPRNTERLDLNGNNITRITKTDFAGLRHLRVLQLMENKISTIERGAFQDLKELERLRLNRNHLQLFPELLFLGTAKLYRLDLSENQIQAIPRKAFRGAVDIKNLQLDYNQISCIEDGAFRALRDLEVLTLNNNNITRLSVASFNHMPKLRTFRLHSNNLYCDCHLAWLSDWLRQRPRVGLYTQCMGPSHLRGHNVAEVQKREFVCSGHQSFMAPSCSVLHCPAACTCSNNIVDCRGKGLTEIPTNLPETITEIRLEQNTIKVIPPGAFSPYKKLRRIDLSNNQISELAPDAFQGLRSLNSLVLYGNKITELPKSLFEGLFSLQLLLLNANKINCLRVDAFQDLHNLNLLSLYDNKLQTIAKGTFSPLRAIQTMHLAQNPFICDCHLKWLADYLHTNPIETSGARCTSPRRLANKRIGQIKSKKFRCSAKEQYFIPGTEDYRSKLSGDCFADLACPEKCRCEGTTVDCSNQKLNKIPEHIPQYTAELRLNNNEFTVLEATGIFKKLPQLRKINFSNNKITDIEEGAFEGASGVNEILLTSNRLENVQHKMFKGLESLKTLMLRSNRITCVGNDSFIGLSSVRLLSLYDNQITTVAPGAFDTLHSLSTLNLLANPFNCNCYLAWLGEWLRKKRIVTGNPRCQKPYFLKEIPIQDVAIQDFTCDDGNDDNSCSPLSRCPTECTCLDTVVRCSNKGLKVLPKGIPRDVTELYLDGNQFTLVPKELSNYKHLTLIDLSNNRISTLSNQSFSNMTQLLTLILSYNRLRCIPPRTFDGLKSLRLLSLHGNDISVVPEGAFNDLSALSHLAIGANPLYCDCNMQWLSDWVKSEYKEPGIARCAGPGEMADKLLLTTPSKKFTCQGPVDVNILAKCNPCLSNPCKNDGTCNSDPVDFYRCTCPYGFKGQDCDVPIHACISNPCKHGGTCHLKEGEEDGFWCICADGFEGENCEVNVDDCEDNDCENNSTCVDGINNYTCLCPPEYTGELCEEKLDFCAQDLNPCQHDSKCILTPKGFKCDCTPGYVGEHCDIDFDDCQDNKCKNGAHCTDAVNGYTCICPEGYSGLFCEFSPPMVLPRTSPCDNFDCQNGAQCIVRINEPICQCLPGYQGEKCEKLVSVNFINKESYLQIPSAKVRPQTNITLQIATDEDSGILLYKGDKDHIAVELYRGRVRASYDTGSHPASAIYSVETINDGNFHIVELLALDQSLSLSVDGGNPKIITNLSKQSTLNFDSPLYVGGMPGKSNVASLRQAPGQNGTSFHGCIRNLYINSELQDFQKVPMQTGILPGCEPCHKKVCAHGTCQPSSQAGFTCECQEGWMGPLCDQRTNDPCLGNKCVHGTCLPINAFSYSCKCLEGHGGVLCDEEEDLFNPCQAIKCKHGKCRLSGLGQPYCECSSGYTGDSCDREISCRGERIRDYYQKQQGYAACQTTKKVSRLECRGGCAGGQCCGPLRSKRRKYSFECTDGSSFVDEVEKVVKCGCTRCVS
Nature of the experiment: co-IP; MDA-MB-231 and BT-549 cell lysates incubated 4 h with Sepharose CL-4B bead-conjugated IgG, TCEB2, Slit2 or NEDD4 antibody; bound proteins eluted and assessed by western blot. For orientation: In western blotting, separated proteins are transferred to a membrane and probed.

The target in experiment [2] is Transcription elongation factor B polypeptide 2 (TCEB2) (human (endogenous in MDA-MB-231 and BT-549)) (UniProt Q15370). Described as above.

Results are given in words; binding and its absence hold for the method and conditions named. In cells and extracts the contact can be indirect. Some entries that bind do so weakly or less than the wild type.

For “Transcription elongation factor B polypeptide 2 (TCEB2) (from UniProt Q15370 1-118)”, the binding result in experiment [1] was “binds”.
Consider “neural precursor cell-expressed developmentally downregulated gene 4 (NEDD4) (from UniProt P46934 1-1319) (enzyme)”, for which the binding entry in experiment [1] and in experiment [2] was “binds” each time.
